The record followed here is the supplement of paper PMC10338343.

± gives the standard deviation. Only a part is listed here, and it is no random draw. Many of these values have a large error.
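Further: 1 nM active piRISC with 0.1 nM target library at 33 °C single turnover.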

In this assay the test system is MILI (PIWIL2) piRISC loaded with piRNA #2 (26 nt). Kind of assay: pre-steady-state target cleavage rate (min^-1); MIWI and MILI are mouse PIWI proteins and EfPiwi is from a freshwater sponge; tags in brackets are library labels; higher = faster piRNA-guided slicing of the target. As to conditions: guide: piRNA #2 5'p-UUAGGUAACCCAGUAGAUCCAGAGGA; auxiliary factor: 500 nM mouse GTSF1. The method in brief: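 The pre-steady-state cleavage rate was calculated from a burst-and-steady-state fit. Data came from Cleave-'n-Seq, in which […] transcribed, DNA-blocked target RNA library was mixed with 1 nM active affinity-purified piRISC carrying one synthetic guide, with or without 500 nM GTSF1 partner protein, in HEPES–potassium acetate buffer at 33 °C for 0–8 or 0–960 min. Uncleaved targets were sequenced and normalised to depth and to weakly complementary targets, three trials were pooled, and k3 was capped at 0.0001 min^-1.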
In the case of CUUAAGGAGACCUAGUACUGGGUUACGUAA, the “pre-steady-state target cleavage rate” value turned out to be 0.000228 ± 0.034. Under CUUAACCUGUGGAUCUACUGGCUUACCUAA stands 0.000552 ± 0.022. Under CUUAAGGAGAGGAACUACUGGCUUACCUAA stands 0.000198 ± 0.043; under CUUAAGGAGACCAUCUUCUCGGUUACCUAA, 0.000779 ± 0.011. Regarding CUUAAGGAGACCUUCUACUUGGGUUACCUAA, the “pre-steady-state target cleavage rate” value amounted to 0.00106 ± 0.0069.

In the case of CUUAAGGAGACCAGCUACUGGGUUACCUAA, the “pre-steady-state target cleavage rate” value turned out to be 0.000916 ± 0.011. The result for CUUAAGCUCUGGAUGUACUGGCUUACCUAA reads 0.00141 ± 0.0077. The result for CUUAUCCUCUGGAACUACUGGGUUAGCUAA reads 0.0654 ± 0.021; that for CUUAAGGAGUGGAUCAACUGGGAUACCUAA, 0.00147 ± 0.0075. Under CUUAAGGAGAGGAUCUACACCGUUACCUAA stands 0.000174 ± 0.021.

Turning to CUUAAGGAGACGAUCUACUGCGUUACCAAA, the “pre-steady-state target cleavage rate” value came to 0.000223 ± 0.016.

Consider CUUAAGGAGAGGAUCUACCUGGGUUACCUAA, for which the “pre-steady-state target cleavage rate” value was determined as 0.00089 ± 0.0098.

On to CUUAAGGAGACCUACUACUGGUGUUACCUAA, for which the “pre-steady-state target cleavage rate” value came out at 0.000484 ± 0.021.

In the case of CUUAAGGACUGGUAUCUACUGGGUUACCUAA, the “pre-steady-state target cleavage rate” value came to 0.00878 ± 0.0089. Under CUUAAGGAGACGAUCUACUUGGUUACCUAA stands 0.000764 ± 0.0092; under CUUAAGGACUGGUUCUUCUGGGUUACCUAA, 0.0097 ± 0.0098; under CUUAAGGAGACCAUCUUCUGGGAUACCUAA, 0.000628 ± 0.015. The result for CUUAAGGAGAGGAUCACUGGGUUACCUAA reads 0.0011 ± 0.0079; that for CUUAACCUCUGGAUCUACUGGCUUACGUAA, 0.000314 ± 0.025. Under CUUAAGCUCUGGAUCUACUGCGUUUCCUAA stands 0.00112 ± 0.0092; under CUUAUCCUCUGGAUGUACUGGGUUACGUAA, 0.0286 ± 0.0078. As to CUUAAGGACUGCAUCUACUGGGUUAGCUAA, the “pre-steady-state target cleavage rate” value came out at 0.00534 ± 0.0084. Under CUUAAGCUCUGGAUCUACUGCGUAACCUAA stands 0.00389 ± 0.006; under CUUAAGGACUCCAUCUACUGGGUUACCUAA, 0.00129 ± 0.0064.

As to CUUAAGGUCUGGAACUACUGCGUUACCUAA, the “pre-steady-state target cleavage rate” value worked out at 0.00453 ± 0.01.

For the sequence CUUAAGCUGUGGAUCUACUGGGUUUCCUAA, the “pre-steady-state target cleavage rate” value was determined as 0.00403 ± 0.0056. The result for CUUAAGGAGUGGAACUACUGGGUUAGCUAA reads 0.00253 ± 0.011; that for CUUAAGGAGACCAUCUACUGGGAUACCUAA, 0.000736 ± 0.008; that for CUUAUACCUCUGGAUCUACUGGGUUACCUAA, 0.251 ± 0.058. Under CUUAAGGAGACGUUCUACAGGGUUACCUAA stands 0.0028 ± 0.0034; under CUUAUCCUCUGGAUCUACUGGGUUACGCUAA, 0.174 ± 0.026; under CUUAACCUCUGGAACUACUGGCUUACCUAA, 0.00179 ± 0.0065. Under CUUAAGGACUGGAUCUACUGGGUUUCCUAA stands 0.00233 ± 0.011; under CUUAAGGACUGGAACUACUGGGUUACCAAA, 0.000534 ± 0.032; under CUUAAGGACUGGAUGUACUGGGUUACGUAA, 0.00599 ± 0.0084. Consider CUUAAGGAGACGAUCUAGUGGGUUACCUUA, for which the “pre-steady-state target cleavage rate” value came out at 0.0012 ± 0.0086.

Regarding CUUAAGGAGUGGAUGUACUGCGUUACCUAA, the “pre-steady-state target cleavage rate” value came to 0.00339 ± 0.0062. For the sequence CUUAACCUCUGGAUCUACUGGGUUUCCUUA, the “pre-steady-state target cleavage rate” value was 0.225 ± 0.066. Under CUUAAGGAGACGAUCUACUGGGAUACCUAA stands 0.000846 ± 0.0074.

Take CUUAAGGAGAGGAUCUUCUGCGUUACCUAA: the “pre-steady-state target cleavage rate” value was 0.00104 ± 0.0073.

As for CUUAACCUCUGGAUCUUCUGGGUAACCUAA, the “pre-steady-state target cleavage rate” value was 0.0414 ± 0.016. The result for CUUAAGGAGACGAUCUACUGGCAUACCUAA reads 0.00013 ± 0.032. Take CUUAAGGAGAGGAUCUACUGCGUUACCUAA: the “pre-steady-state target cleavage rate” value worked out at 0.0028 ± 0.0042. The result for CUUAAGGACUGGAUCUACUGGGUAACCUAA reads 0.00568 ± 0.0083; that for CUUAAGGAGAGGAUCUAUGGGUUACCUAA, 0.000925 ± 0.0094. Under CUUAAGGAGACCUUCUACUGGGGUACCUAA stands under 0.0001. Under CUUAAGCUCUGCAUCUACUCGGUUACCUAA stands 0.0009 ± 0.0089; under CUUAAGGACUGGAUCAACUGGGUUACCAAA, 0.0038 ± 0.0099; under CUUAAGGACUGGAACUACUGGGUUAGCUAA, 0.00331 ± 0.013. Take CUUAAGGAGACCUUCUACUGGGUGACCUAA: the “pre-steady-state target cleavage rate” value was 0.000199 ± 0.027. The result for CUUAAGGAGUCCAUCUACUGGGUUACCUAA reads 0.00123 ± 0.0051; that for CUUAAGGAGACCUUCUACUGCGUAACCUAA, 0.000281 ± 0.02. Under CUUAAGGAGACCUAGAUGUGGGUUAACUAA stands 0.000413 ± 0.015; under CUUAAGGACUGGAUACUACUGGGUUACCUAA, 0.00387 ± 0.0093. Under CUUAUCCUCUGGUUCUACUGCGUUACCUAA stands 0.0261 ± 0.0078; under CUUAAGGAGACGAUCUACUGUGGUUACCUAA, 0.000747 ± 0.0091. On to CUUAAGGUCUGGAUCUACUGGCUUACCUUA, for which the “pre-steady-state target cleavage rate” value stood at 0.000539 ± 0.012. Consider CUUAAGGAGACCUAGAUGACCCAUACCUAA, for which the “pre-steady-state target cleavage rate” value stood at 0.000114 ± 0.019. The result for CUUAAGGAGACCUAGUGACUGGGUUACCUAA reads 0.000179 ± 0.051; that for CUUAAGCUCUCGAUCUACUGGGUUACCUAA, 0.113 ± 0.019.

As for CUUAAGGAGACCAUCUACUGAGGUUACCUAA, the “pre-steady-state target cleavage rate” value came out at 0.00114 ± 0.0076. The result for CUUAAGGAGACCAUCUACUGGGUUACCUCA reads 0.000712 ± 0.011; that for CUUAAGGAGAGGAUCGACUGGGUUACCUAA, 0.00355 ± 0.0063. The result for CUUAACGUCUGGAUCUACUGGCUUACCUAA reads 0.00146 ± 0.0084; that for CUUAAGGAGACCAUCUACGUGGGUUACCUAA, 0.000495 ± 0.018; that for CUUAAGGAGACCUUCUACUCCGUUACCUAA, 0.000343 ± 0.026. With CUUAACCUCUGGAUCUACUGGGUUACCUUA, the “pre-steady-state target cleavage rate” value is 0.111 ± 0.026. Under CUUAAGGAGACCUACUACUGGGUUUACCUAA stands 0.000549 ± 0.014.

CUUAAGGAGAGGAUAUACUGGGUUACCUAA: the “pre-steady-state target cleavage rate” value worked out at 0.00364 ± 0.0039. Under CUUAAGCUCUGGAUCUACUCGGUUACCAAA stands 0.00146 ± 0.0074; under CUUAAGGAGACGAAUCUACUGGGUUACCUAA, 0.00134 ± 0.0062. Under CUUAAGGAGACCAUCUACUGAGUUACCUAA stands 0.00246 ± 0.0054.
